Article PMC10085685
Results are given in words; binding and its absence hold for the method and conditions named. Some results given as binding are weak or reduced against the parent protein; the word gives no strength. Sequences can lack the tags named with a protein.

Biological target: T1, AtMHF2, yeast two-hybrid fusion (Arabidopsis thaliana) (UniProt Q8L7N3)
T1 sequence: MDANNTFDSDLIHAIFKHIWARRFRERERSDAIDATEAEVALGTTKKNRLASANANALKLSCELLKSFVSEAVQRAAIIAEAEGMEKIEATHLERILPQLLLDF
Assay: two-hybrid; Gal4-based system (Clontech), haploid strains AH109 and Y187 mated to a diploid strain; pGADT7-GW / PACT2 AD and pGBKT7(-GW) fusions

B1: AtFANCE, yeast two-hybrid fusion (protein, UniProt Q9SU89 1-493)
chain: MEEWIPLFDIFLKSPSPEAEASLWLDQASNLFSSSSSAAAPINRSSFVSLLKKQCDQNSSPVTKKVLFIETLPNMVQSKILSFLLFEYQRFCVSDLVWLAREMLGSGGNKVVDFWVQRDAHNLLDRIPKPKFEWISNLDLDSADEDSMKQVFDSVPDWLSEKLGSAGTILPWLPVSCDDVDSEMLVVDSWNGKEITQIKEDMEEDQREVVHNIDHTMTVGLQAHDHEMAVNLRAQISNFESTSEVLTLCNDIRRLCLEKGKDSLRVLALIEPWNADDETAAVLLSSLHNGSEEEELGWPSHVLCSIVLPKFLSLEKSASRVLMSSTIEFCKIHQRAAEYALVFPLILRKEGINNFICEVISRVLKECLHLGQISGFCQKLLCGRTQERRFMFLPCHRDLISDELTWNEYLFILFQNILIHGIPLSQDSVDCLVSKVQELAERYSKSLKFGNFLLHFTAKCAPMLQAHKYQLIESVKCTNSLVTKSILSKLNAL
In the case of B1, the binding is reported as “binds”.
